Experimental data published in paper PMC2294136.
Where a chain is given by its changes, count along the chain named. Results are given in words; binding and its absence hold for the method and conditions named. In cells and extracts the contact can be indirect. Some binding calls cover weakened binding; strength is not graded here. Where a sequence is shown, tags or fusion partners need not be part of it.

T1: HA-tagged Skp1 (S. pombe) (UniProt Q9Y709)
T1 sequence: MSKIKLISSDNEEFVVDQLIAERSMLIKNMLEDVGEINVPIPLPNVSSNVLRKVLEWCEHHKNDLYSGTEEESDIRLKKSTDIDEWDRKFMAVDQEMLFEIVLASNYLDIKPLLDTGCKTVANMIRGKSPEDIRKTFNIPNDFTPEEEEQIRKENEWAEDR

B1: GFP-Fbh1 (wild type) (protein, UniProt Q9USU3 1-878)
chain: MSAQHLHSCKFYRLPLEIIPLICRFLSVQDIQSFIRVFPSFQTILDSSNDLFWKKKNYELRIRRNRLLRGSYAAGVSSSAMNGFVNGTQISSTPAEREYYSKSDEIKNICGLPPGPMKVEQIGHAIDHLVSETHTVDHLGSSIKASFFHIDDVPLEWISSICMQVQSFFSPAAREAISSLKSRTTTSNLLLSLFVGILFEDDLWYFFNTLYMLSSTSAIEFAYFLDSIFTVVRTDYEHYRDPLSQTLITSCTRIHNIVAVIESPYDEPNTKGLTSEQKMIVECQLNPGEVLKVKAFAGTGKTKALLEFAKSRPKDKILYVAFNKAAKEDAELRFPFNVKCSTMHGLAYGAILAQADLPQAKLERQLSNSTIASLLSLQVAFPKANRKNNPGTPSASLVASHIMFTLNRFMHSTDWQLGFRHISKRSLEVTKLSKEKLLAYTKKLWSLIVNFEYTHAPLIPDAYMKLLHLYEFPNIFSKYDYILFDEAQDFTPCMVDLIYRQKHARIVIVGDAHQCIYGFRGANACAFNENLYPSTKQLCLTKSFRFGNSVAKYANFLLSLKGENVKLKGVQNDHAYWSSASNPNNVSGAFRFFPHTIIFRTNKELILQSIRLSVSLPKEIPIAILGSMRKKAFQLLRSGSELAHGQRPSHPKLKDFSSWGEFEVHVKNSAEEDAELALVYDMADELFSESFLSRLDNCEKRLMDSKDDGDNGIILATAHQSKGLEWDNVQLGNDFRPKFDSVSFSRIGSSRYLQEEINILYVALTRAKKRLILNDTITKLYALECGLVRFAGGILTEDQLQPGKVALFVDWQIDKFSFFYETPAEGYNLLVEANEKSVWDIFFGVLSGAWQNYIANTSERLKRSMLFIENQLFAVHDQ
B2: GFP-Fbh1-fb (protein, UniProt Q9USU3 1-878)
chain: B1 chain with P15A, L26A
B3: GFP-Fbh1-hl (protein, UniProt Q9USU3 1-878)
chain: B1 chain with K301A

Each binder was assayed against T1, HA-tagged Skp1 (S. pombe) (assay: co-IP; extracts of S. pombe fbh1Δ cells expressing HA-Skp1 and GFP-Fbh1 versions; immunoprecipitated with anti-HA antibody (12CA5) and protein G-agarose, 2 h at 4°C, buffer A (50 mM Tris-HCl pH 7.5, 15 mM EGTA, 100 mM NaCl, 0.1% Triton X-100, 1 mM DTT); western blot with anti-GFP or anti-HA).

| binding | Binder |
| --- | --- |
| binds | B1 |
| no binding | B2 |
| binds | B3 |
